According to publication PMC7819943, “Rice protein-binding microarrays: a tool to detect cis-acting elements near promoter regions in rice”:
The list shows a part of the results.

By UniProt entry, the sequences of proteins in these tests, tags left out.
UniProt Q0JBA9, entry or part of it: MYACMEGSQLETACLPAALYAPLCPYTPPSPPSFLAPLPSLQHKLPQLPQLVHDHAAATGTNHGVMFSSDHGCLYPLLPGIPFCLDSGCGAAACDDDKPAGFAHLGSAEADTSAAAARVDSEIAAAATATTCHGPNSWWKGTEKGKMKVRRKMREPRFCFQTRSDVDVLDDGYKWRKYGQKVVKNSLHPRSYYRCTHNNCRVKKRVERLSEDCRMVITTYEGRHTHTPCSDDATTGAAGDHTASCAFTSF

Each sequence was assayed against OsWRKY34 (Oryza sativa, UniProt Q0JBA9 1-250) (assay: protein-binding microarray (RPBM); PBS, 2% BSA, 51.3 ng/ul salmon testes DNA, 50 uM zinc acetate, 200 nM TF, 25 C, 1 h; high values mean tight binding). Conditions: protein: recombinant; tags: N-terminal polyhistidine and DsRed monomer fusion (pET32a); label: CyDye5-dUTP incorporated in the synthesized complementary strand; 3' TTTTT single-stranded linker to array surface; dsDNA, one strand shown.
Method in brief: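 Polyhistidine-tagged DsRed fusions of transcription factors, joined at the N-terminus, were expressed in E. coli BL21-CodonPlus and isolated on Ni–NTA. They were incubated at 200 nM for 1 h at 25 °C on a custom Agilent array, double-stranded and BSA-blocked, in PBS with 2% BSA, salmon testes DNA and 50 µM zinc acetate. The binding signal is per-feature fluorescence intensity (arbitrary units) read on an Axon 4000B scanner after washing.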

Row | Sequence | binding signal
1 | GCCCAAATAGACGGCCCATATTGAATCACGCAAAATTACACGGAGTCACCTAGTGCAG | 10400 fluorescence intensity (a.u.)
2 | AGCAGTTAGGGTTCTTGGCGTTGGGGCTTTCAATAGCGCGCGGAGTCACCTAGTGCAG | 8560 fluorescence intensity (a.u.)
3 | CCTCGCTCCTCCTCGTCGCAGATCGATCTCAAACCTTCAGCGGAGTCACCTAGTGCAG | 8730 fluorescence intensity (a.u.)
4 | GACCGATTTTGTTCTGTTTTCCATTTGTTTTTTGGCCGGGCGGAGTCACCTAGTGCAG | 8560 fluorescence intensity (a.u.)
5 | CTGGGGTTCAAGTTGCAGAAAAACATACACATTTTGACACCGGAGTCACCTAGTGCAG | 9170 fluorescence intensity (a.u.)
6 | CCGTATTCGATTCGTTTTCATTCCTACATATGTGTGTACTCGGAGTCACCTAGTGCAG | 10300 fluorescence intensity (a.u.)
7 | GGCTGCAGCAACGCCGACCTTTCTTCTCACGGCCCAAATCCGGAGTCACCTAGTGCAG | 8480 fluorescence intensity (a.u.)
8 | AAAAAAAACCACCACGCCTCGTTCAGTCACTCGCACGCTCCGGAGTCACCTAGTGCAG | 9810 fluorescence intensity (a.u.)
9 | ACGCCGGCGACCACCTCCCAACATCCTCTCTCATGTCGCACGGAGTCACCTAGTGCAG | 8680 fluorescence intensity (a.u.)
10 | CAATGACCCTACACCGGCAACAAACAAGTCGGTCGACACCCGGAGTCACCTAGTGCAG | 8290 fluorescence intensity (a.u.)
11 | ACCCCGACCATCTCCCACCATCGGAGGAGACGCTCAAACTCGGAGTCACCTAGTGCAG | 8340 fluorescence intensity (a.u.)
12 | CTTTTGTTTTTCCTTTTTTCTCACTTGTCCCTACTTGACCCGGAGTCACCTAGTGCAG | 10700 fluorescence intensity (a.u.)
13 | AGCAATCAAGTTCAAGCCATCTTTATTTGCAGCTCACATTCGGAGTCACCTAGTGCAG | 8380 fluorescence intensity (a.u.)
14 | TAACTCTCTCCTAACTGTCATGGTGCTCTACACTCTTCCACGGAGTCACCTAGTGCAG | 9990 fluorescence intensity (a.u.)
15 | GCGCAGGACGCGGAGGAAGAGGCGGAGGGTGGCGGAGGGGCGGAGTCACCTAGTGCAG | 8250 fluorescence intensity (a.u.)
16 | CCCACACTGCAAACACCTTAATTAGTACTACTACTAGTCACGGAGTCACCTAGTGCAG | 9450 fluorescence intensity (a.u.)
17 | GCTGCTCGGATTTGATTGATTGATTGATTGGCGGGTGGTCCGGAGTCACCTAGTGCAG | 8590 fluorescence intensity (a.u.)
18 | GGGGAGTACAGCTATCATTTTGTGGTTATTTCAATATAATCGGAGTCACCTAGTGCAG | 10800 fluorescence intensity (a.u.)
19 | CCTCGTTCTCCCTCGCCAGCGACGCCTCCTCCTTCGCCTGCGGAGTCACCTAGTGCAG | 8160 fluorescence intensity (a.u.)
20 | AGGAGTCCGATGCGGGCGACTTCTCGGGCGGGGAGGAGAACGGAGTCACCTAGTGCAG | 8990 fluorescence intensity (a.u.)
21 | ATCGGCTGTGTTGTGACCAATGTGCCCCTGGCTCAGAAATCGGAGTCACCTAGTGCAG | 8690 fluorescence intensity (a.u.)

Row | Sequence | binding signal
22 | GATCAAAATTTTAGTCTCTGATCCTAAAGTGCACATATTTCGGAGTCACCTAGTGCAG | 8650 fluorescence intensity (a.u.)
23 | ATGTAAGTCATTCTAGCATTTTTTACATTCATATTGATGTCGGAGTCACCTAGTGCAG | 9380 fluorescence intensity (a.u.)
24 | CTTGATGAGTTATACCACTTTGTTATTGATGATTTTTTTCCGGAGTCACCTAGTGCAG | 9700 fluorescence intensity (a.u.)
25 | CTTCAGGACTCTGCACTTGCTTCCATTCTACTCCGGCCATCGGAGTCACCTAGTGCAG | 11300 fluorescence intensity (a.u.)
26 | GCATCGTCGCCCTCCACGTCGCCGCCGCCGCCGCCGCCGGCGGAGTCACCTAGTGCAG | 8450 fluorescence intensity (a.u.)
27 | ATTTACCTTTTAGCGTCCCTGGTTGCTTTATTTACACTATCGGAGTCACCTAGTGCAG | 9180 fluorescence intensity (a.u.)
28 | GTTTCTTTTTTTTTCCTGCTCACTGGATTTTCCATGTCACCGGAGTCACCTAGTGCAG | 9700 fluorescence intensity (a.u.)
29 | GATGCGTAGCGAGTTGCATATGATCATATATATATATATACGGAGTCACCTAGTGCAG | 8190 fluorescence intensity (a.u.)
30 | GTCCGGTTGAACGAGATCTATTGACGCTTGACTTGTCTCACGGAGTCACCTAGTGCAG | 8670 fluorescence intensity (a.u.)
31 | AATCGCTCGCACAGCCGCATCTTCCGCCGCCACGGCTTCTCGGAGTCACCTAGTGCAG | 10600 fluorescence intensity (a.u.)
32 | AAGCCATGGGGCACACTCCCATCACCAGTTTATTCCTGTACGGAGTCACCTAGTGCAG | 8490 fluorescence intensity (a.u.)
33 | ATCACCAATCGTCTCTTTTTTATTTGTTGAACAAACTTATCGGAGTCACCTAGTGCAG | 9540 fluorescence intensity (a.u.)
34 | ATCTAGCGGTCTCTTTGTTTCGTTTATACTTATATTTATCCGGAGTCACCTAGTGCAG | 9550 fluorescence intensity (a.u.)
35 | TCCCTCCAGTGACGACACAACTGAATTCGGTGCCTTCCTTCGGAGTCACCTAGTGCAG | 8340 fluorescence intensity (a.u.)
36 | AACACCCTTACTACTCCTGCTCCTACGACCGCGATCTTCTCGGAGTCACCTAGTGCAG | 11800 fluorescence intensity (a.u.)
37 | ATATCCCGCAGCGATAATCCTTTTCACTCCCACCAAAGCCCGGAGTCACCTAGTGCAG | 11600 fluorescence intensity (a.u.)
38 | ACAGCCTCATCGATGTTTTTAGTTTTAGTATATACGACATCGGAGTCACCTAGTGCAG | 8140 fluorescence intensity (a.u.)
39 | CTGATCCTTATCTTTTGCATGTACTTAAGTCTATATAATGCGGAGTCACCTAGTGCAG | 10800 fluorescence intensity (a.u.)
40 | ATTCCTCTTGCAGTCTTGCAGCCCCAGTCAACTCCTACCCCGGAGTCACCTAGTGCAG | 8330 fluorescence intensity (a.u.)
41 | TCCACCTCCGCCTCCGCCACAGCCGCGCCGCGCCGCTCCCCGGAGTCACCTAGTGCAG | 10200 fluorescence intensity (a.u.)
42 | CTCTCTCTCGTCGTCTCCGTCTCCGGCTTCCCCTATCCATCGGAGTCACCTAGTGCAG | 10300 fluorescence intensity (a.u.)

Quoted from the listing:
binding signal, ATCACCAATCGTCTCTTTTTTATTTGTTGAACAAACTTATCGGAGTCACCTAGTGCAG reads 9540 fluorescence intensity (a.u.)
binding signal, ATTCCTCTTGCAGTCTTGCAGCCCCAGTCAACTCCTACCCCGGAGTCACCTAGTGCAG reads 8330 fluorescence intensity (a.u.)
